# Assay results reported in PMC12429026.
# Amino acid sequences for entries named in this document (tags omitted). A change or cut given only in a name is not applied to a line headed by its entry.
# UniProt Q9Z183: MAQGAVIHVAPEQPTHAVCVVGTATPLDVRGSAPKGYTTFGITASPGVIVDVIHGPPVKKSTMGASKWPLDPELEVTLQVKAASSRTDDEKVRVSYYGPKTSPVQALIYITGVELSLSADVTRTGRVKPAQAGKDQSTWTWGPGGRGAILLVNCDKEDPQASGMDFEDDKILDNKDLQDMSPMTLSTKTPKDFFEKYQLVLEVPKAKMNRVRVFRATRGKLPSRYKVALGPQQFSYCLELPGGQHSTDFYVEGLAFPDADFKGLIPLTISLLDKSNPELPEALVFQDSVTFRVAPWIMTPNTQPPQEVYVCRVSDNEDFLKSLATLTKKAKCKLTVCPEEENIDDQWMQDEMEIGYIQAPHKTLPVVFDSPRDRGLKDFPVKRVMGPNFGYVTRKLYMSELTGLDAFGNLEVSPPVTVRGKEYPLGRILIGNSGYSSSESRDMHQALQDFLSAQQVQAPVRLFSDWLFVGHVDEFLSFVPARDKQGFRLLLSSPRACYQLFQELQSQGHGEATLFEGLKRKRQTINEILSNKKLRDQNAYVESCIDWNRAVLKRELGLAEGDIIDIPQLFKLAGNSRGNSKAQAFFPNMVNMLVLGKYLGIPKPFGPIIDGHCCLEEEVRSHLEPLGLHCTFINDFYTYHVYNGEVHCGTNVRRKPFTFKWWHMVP
# UniProt Q60876: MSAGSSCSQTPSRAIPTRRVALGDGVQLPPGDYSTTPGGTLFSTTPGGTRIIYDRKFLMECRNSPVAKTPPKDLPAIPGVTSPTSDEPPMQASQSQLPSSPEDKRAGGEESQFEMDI
# UniProt P27782: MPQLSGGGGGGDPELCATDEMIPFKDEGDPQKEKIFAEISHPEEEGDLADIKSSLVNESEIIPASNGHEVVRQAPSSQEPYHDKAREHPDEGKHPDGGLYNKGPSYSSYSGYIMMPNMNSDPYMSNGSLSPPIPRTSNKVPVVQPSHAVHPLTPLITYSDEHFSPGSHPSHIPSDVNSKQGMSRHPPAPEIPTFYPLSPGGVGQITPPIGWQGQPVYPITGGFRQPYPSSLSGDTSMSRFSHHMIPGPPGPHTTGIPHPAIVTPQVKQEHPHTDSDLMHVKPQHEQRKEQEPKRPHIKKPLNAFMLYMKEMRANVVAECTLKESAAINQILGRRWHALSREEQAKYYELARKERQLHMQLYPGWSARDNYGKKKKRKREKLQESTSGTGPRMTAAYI
# These are yes or no findings as the source states them, for the method shown. In cells and extracts the contact can be indirect. Some binding calls cover weakened binding; strength is not graded here.
# Tests used:
# [1] = biological target: HA-PADI4 (pCW57.1) (mouse) (UniProt Q9Z183); assay: co-IP; HA-PADI4 coexpressed with Flag-4E-BP1 WT or R62K in HEK293 cells; anti-HA beads by the text (anti-Flag by the legend); cells untreated or treated with ionomycin and Ca2+ before lysis
# [2] = biological target: HA-PADI4 (pCW57.1) (mouse) (UniProt Q9Z183); assay: co-IP; PADI4 and LEF1 overexpressed in HEK293 cells; lysate in Pierce IP lysis buffer with protease inhibitors; the precipitated protein is not named in the text (methods: HA beads for HA-PADI4)
Substance,binding [1],binding [2]
3xFlag-4E-BP1_R62K (pCW57.1) (from UniProt Q60876 1-117),binds,
3xFlag-4E-BP1_WT (pCW57.1) (from UniProt Q60876 1-117),binds,
LEF1_6xHis (pUC.19) (from UniProt P27782 1-397),,binds
